Results on 19 compounds are retold here after PubChem BioAssay AID328 (DTP/NCI, 2004).

The assay deals with BDF1 mice, P388 leukemia ip, median survival T/C. Kind of assay: NCI In Vivo Anticancer Drug Screen. Data for tumor model P388 Leukemia (intraperitoneal) in B6D2F1 (BDF1) mice. The settings on record: T/C endpoint: median survival time, higher T/C = longer survival. In short, it runs like this: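 Compound-treated tumour-bearing mice were compared with vehicle-treated controls. Survival was recorded, and the value is the treated-group measurement divided by the control-group measurement (T/C).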

[1] abbreviates: dose: 400.0 mg/kg/injection, schedule: Q01DX009 (ip), vehicle: saline with Tween-80.
[2] abbreviates: dose: 100.0 mg/kg/injection, schedule: Q01DX009 (ip), vehicle: saline with Tween-80.
[3] abbreviates: dose: 200.0 mg/kg/injection, schedule: Q01DX009 (ip), vehicle: saline with Tween-80.
Setting [4] is: dose: 200.0 mg/kg/injection, schedule: Q04DX003 (ip), vehicle: saline with Tween-80.
[5] abbreviates: dose: 75.0 mg/kg/injection, schedule: Q01DX009 (ip), vehicle: Klucel (hydroxypropylcellulose) (HPC).

The structures appear in SMILES notation. The list shows only some results of the screen, not a fair sample: it is rich in T/C values a quarter to a half above the control, in often repeated tests (any T/C) and in doses without a T/C. Other doses and runs of a compound stand elsewhere. T/C gives the treated animals as a percentage of the vehicle group. Some doses have a count of surviving animals in place of a T/C: the source holds a T/C of zero for them, seemingly a mark for toxic or unscored doses. Some survivor counts are full or nearly so, which does not show that the dose was tolerated: the source hardly ever lists a survival T/C far under the control, and the zero likely stands for such cases as well. Survivors were counted at the toxicity check, usually on the fifth day, unless a day is given; later deaths do not show. Schedule codes are those of the source, read here as Q, the interval in days (D) or hours (H), X, the number of doses. Some doses were run more than once; the values are given in rising order. Where survival is the endpoint, this PubChem deposit counts one and a half times the control or more as active, and values a quarter to a half above the control carry no call in these data; other NCI protocols may use other cut-offs. Some T/C values carry the count of animals alive at the toxicity check (mostly the fifth day); without a count, all were alive then.

With `[CH3][Sn]([CH3])([Cl])[S]CCN`, the T/C is 137 % of control (dose: 3.12 mg/kg/injection, schedule: Q01DX009 (ip), vehicle: saline) and 127 % of control (dose: 12.5 mg/kg/injection, schedule: Q01DX009 (ip), vehicle: saline).
For the compound `CCC(=O)c1cc(O)ccc1O`, where the note is “dose: 200.0 mg/kg/injection, schedule: Q01DX009 (ip), vehicle: other”, the survivor count is listed as 4 of 6.
On to `O=C(N/N=C\c1ccc(N(CCCl)CCCl)cc1)c1cccnc1`, for which the survivor count (dose: 400.0 mg/kg/injection, schedule: Q01DX009 (ip), vehicle: gum acacia) was 5 of 6.
For the compound `COc1cc2ccc3c4cc5c(cc4c[n+](C)c3c2cc1OC)OCO5`, the T/C is 140 % of control (dose: 20.0 mg/kg/injection, schedule: Q01DX009 (ip), vehicle: saline) and 127 % of control (dose: 120.0 mg/kg/injection, schedule: Q01DX009 (ip), vehicle: saline). Also, the survivor count (dose: 240.0 mg/kg/injection, schedule: Q01DX009 (ip), vehicle: saline) is 3 of 6 and 4 of 6.
As to `O=C(O)c1cc(C(=O)O)cc(S(=O)(=O)F)c1`, the survivor count under setting [1] is listed as 1 of 6.
As to `CN(C)/N=N/c1nc(Cc2ccccc2)[nH]c1C(N)=O`, the T/C by setting is: under setting [2], 142 % of control; under setting [3], 146 % of control; under setting [1], 145 % of control.
For the compound `O=C(O)CSC(CC(=O)O)C(F)(F)C(F)(F)C(F)(F)F` (stereo not drawn), the T/C runs as follows: (dose: 100.0 mg/kg/injection, schedule: Q04DX003 (ip), vehicle: saline) 133 % of control; (dose: 200.0 mg/kg/injection, schedule: Q04DX003 (ip), vehicle: saline) 127 % of control. Also, the survivor count (dose: 400.0 mg/kg/injection, schedule: Q01DX009 (ip), vehicle: saline) is 1 of 6.
On to `Nc1nc2c(ncn2C2OC(CO)C(O)C2O)c(=O)[nH]1` (stereo not drawn), for which the T/C (dose: 50.0 mg/kg/injection, schedule: Q04DX003 (ip), vehicle: saline with Tween-80) is 130 % of control. Further, the survivor count is 2 of 6 under setting [4] and 0 of 6 (dose: 400.0 mg/kg/injection, schedule: Q04DX003 (ip), vehicle: saline with Tween-80).
As for `COc1cc(C(=O)O)c2c(c1C)OC(=O)c1c(C)cc(O)c(C=O)c1O2`, the T/C by setting is: (dose: 8.0 mg/kg/injection, schedule: Q01DX009 (ip), vehicle: Klucel (hydroxypropylcellulose) (HPC)) 131 % of control; (dose: 8.0 mg/kg/injection, schedule: Q01DX010 (ip), vehicle: saline) 127 and 147 % of control; (dose: 16.0 mg/kg/injection, schedule: Q01DX009 (ip), vehicle: Klucel (hydroxypropylcellulose) (HPC)) 136 % of control; (dose: 16.0 mg/kg/injection, schedule: Q01DX010 (ip), vehicle: saline) 136 % of control; (dose: 32.0 mg/kg/injection, schedule: Q01DX009 (ip), vehicle: Klucel (hydroxypropylcellulose) (HPC)) 140 % of control [5 of 6 alive]; (dose: 32.0 mg/kg/injection, schedule: Q01DX010 (ip), vehicle: saline) 127 [5 of 6 alive], 138, 140 % of control. Moreover, the T/C (dose: 40.0 mg/kg/injection, schedule: Q04DX003 (ip), vehicle: saline) was 129 % of control. Also, the survivor count by setting is: (dose: 63.0 mg/kg/injection, schedule: Q01DX010 (ip), vehicle: saline) 2 of 6; (dose: 64.0 mg/kg/injection, schedule: Q01DX009 (ip), vehicle: Klucel (hydroxypropylcellulose) (HPC)) 2 of 6; (dose: 64.0 mg/kg/injection, schedule: Q01DX010 (ip), vehicle: saline) 5 of 6; (dose: 160.0 mg/kg/injection, schedule: Q01DX001 (ip), vehicle: saline) 2 of 6; (dose: 320.0 mg/kg/injection, schedule: Q01DX001 (ip), vehicle: saline) 0 of 6.
As to `O=NN(CCCl)C(=O)Nc1cccc(O)c1`, the T/C was 133 % of control (dose: 9.6 mg/kg/injection, schedule: Q04DX003 (ip), vehicle: Klucel (hydroxypropylcellulose) (HPC)); 141 % of control (dose: 14.0 mg/kg/injection, schedule: Q04DX003 (ip), vehicle: Klucel (hydroxypropylcellulose) (HPC)); 133 % of control (dose: 35.0 mg/kg/injection, schedule: Q01DX009 (ip), vehicle: Klucel (hydroxypropylcellulose) (HPC)); 145 % of control (dose: 50.0 mg/kg/injection, schedule: Q01DX009 (ip), vehicle: Klucel (hydroxypropylcellulose) (HPC)). Besides, the survivor count is listed as 4 of 6 under setting [5]; 6 of 6 (dose: 150.0 mg/kg/injection, schedule: Q04DX003 (ip), vehicle: saline); 5 of 6 (dose: 200.0 mg/kg/injection, schedule: Q04DX003 (ip), vehicle: Klucel (hydroxypropylcellulose) (HPC)).
On to `Nc1nc(C=O)c(CCc2ccccc2)c(=O)[nH]1`, for which the T/C (dose: 100.0 mg/kg/injection, schedule: Q04DX003 (ip), vehicle: saline with Tween-80) is 127 % of control. In addition, the survivor count under setting [4] is listed as 1 of 6.
As for `CC(=O)OCC1OC(=O)C(C)N(C)C(=O)CN(C)C(=O)C2C(=O)CC(C)N2C(=O)C(C(C)C)NC(=O)C1NC(=O)c1c2nc3c(C(=O)NC4C(=O)NC(C(C)C)C(=O)N5C(C)CC(OC(C)=O)C5C(=O)N(C)CC(=O)N(C)C(C(C)C)C(=O)OC4C)ccc(C)c3oc-2c(C)c(=O)c1N` (stereo not drawn), the T/C runs as follows: (dose: 0.15 mg/kg/injection, schedule: Q04DX003 (ip), vehicle: saline with Tween-80) 139 % of control; (dose: 0.3 mg/kg/injection, schedule: Q04DX003 (ip), vehicle: saline with Tween-80) 138 % of control. The survivor count (dose: 6.4 mg/kg/injection, schedule: Q01DX001 (ip), vehicle: saline with Tween-80) is 4 of 8.
Consider `O=C(O)c1ccccc1C(=O)Nc1ccccc1C(F)(F)F`, for which the T/C under setting [1] is 128 % of control [5 of 6 alive].
Turning to `O=CN(SSN(C=O)C1CCCCC1)C1CCCCC1`, the T/C runs as follows: under setting [2], 130 % of control; under setting [3], 131 and 138 % of control; under setting [1], 142 % of control.
Regarding `Cc1ccc2c(C)c3ccc4ccccc4c3c[n+]2c1`, the T/C (dose: 10.0 mg/kg/injection, schedule: Q01DX009 (ip), vehicle: Klucel (hydroxypropylcellulose) (HPC)) was 127 % of control; the T/C (dose: 20.0 mg/kg/injection, schedule: Q01DX009 (ip), vehicle: Klucel (hydroxypropylcellulose) (HPC)) was 131 % of control; the T/C (dose: 37.5 mg/kg/injection, schedule: Q01DX009 (ip), vehicle: Klucel (hydroxypropylcellulose) (HPC)) is 140 % of control [5 of 6 alive]; the T/C (dose: 40.0 mg/kg/injection, schedule: Q01DX009 (ip), vehicle: Klucel (hydroxypropylcellulose) (HPC)) was 131 % of control; the T/C (dose: 80.0 mg/kg/injection, schedule: Q01DX009 (ip), vehicle: Klucel (hydroxypropylcellulose) (HPC)) was 145 % of control; the T/C (dose: 80.0 mg/kg/injection, schedule: Q04DX003 (ip), vehicle: saline) is 140 % of control. In addition, where the note is “dose: 160.0 mg/kg/injection, schedule: Q04DX003 (ip), vehicle: saline”, the T/C was 136 % of control. Besides, the survivor count is given as 3 of 6 under setting [5]; 5 of 6 (dose: 150.0 mg/kg/injection, schedule: Q01DX009 (ip), vehicle: Klucel (hydroxypropylcellulose) (HPC)); 4 of 6 (dose: 300.0 mg/kg/injection, schedule: Q01DX009 (ip), vehicle: Klucel (hydroxypropylcellulose) (HPC)); 5 of 6 (dose: 600.0 mg/kg/injection, schedule: Q01DX009 (ip), vehicle: Klucel (hydroxypropylcellulose) (HPC)).
For `COc1ccc(C(CC(=O)c2ccc3c(c2)OCO3)c2c(O)c3ccccc3oc2=O)cc1OC` (stereo not drawn), the survivor count is reported as 6 of 6 under setting [2], 5 of 6 under setting [3] and 4 of 6 under setting [1].
Regarding `CN1CCC(C(O)c2ccccc2)CC1` (stereo not drawn), the survivor count (dose: 400.0 mg/kg/injection, schedule: Q01DX001 (ip), vehicle: Klucel (hydroxypropylcellulose) (HPC)) is given as 1 of 6.
For the compound `COc1cc2c3c(c1)-c1c(ccc(OC)c1Oc1nnnn1-c1ccccc1)CC3N(C)CC2` (stereo not drawn), the survivor count (dose: 400.0 mg/kg/injection, schedule: Q04DX003 (ip), vehicle: saline) is 0 of 6.
For `NC(N)=Nc1ccc(OC(=O)c2ccc(N=C(N)N)cc2)cc1`, the survivor count is, setting by setting: (dose: 50.0 mg/kg/injection, schedule: Q01DX009 (ip), vehicle: water) 4 of 6; (dose: 100.0 mg/kg/injection, schedule: Q01DX009 (ip), vehicle: water) 3 of 6.
